This is one part of the list. The data scatter; read single values as rough.
Legend:
[1] = compound: ClCC(=O)N[C@@H]1CCCc2ccccc12; assay: log2 mean competition ratio of IA-DTB cysteine labelling (DMSO/compound) (log2 ratio); higher = stronger cysteine engagement by compound; settings: treatment time: 4 h, cell line lysate: HEK293T
Description: (§1)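 IA-DTB competitive cysteine chemoproteomics in HEK293T RIPA lysate. Lysates were treated with compound 29 or 30 at 50 or 200 µM for 4 h, then IA-DTB (500 µM, 1 h), trypsin-digested, NeutrAvidin-enriched and analysed by diaPASEF. Competition ratio = intensity DMSO / intensity compound (n=4 treated, n=64 DMSO); binding: mean log2 CR ≥ 1 and p ≤ 0.05 plus QC filters. Target is the cysteine site.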

Chains of the proteins cited; added tags and fusions are not shown. A change or cut given only in a name is not applied to a line headed by its entry. Chains listed by the source or under a name are the forms on record and can include a tag or linker. Residues count along the entry.
UniProt Q8WYA0: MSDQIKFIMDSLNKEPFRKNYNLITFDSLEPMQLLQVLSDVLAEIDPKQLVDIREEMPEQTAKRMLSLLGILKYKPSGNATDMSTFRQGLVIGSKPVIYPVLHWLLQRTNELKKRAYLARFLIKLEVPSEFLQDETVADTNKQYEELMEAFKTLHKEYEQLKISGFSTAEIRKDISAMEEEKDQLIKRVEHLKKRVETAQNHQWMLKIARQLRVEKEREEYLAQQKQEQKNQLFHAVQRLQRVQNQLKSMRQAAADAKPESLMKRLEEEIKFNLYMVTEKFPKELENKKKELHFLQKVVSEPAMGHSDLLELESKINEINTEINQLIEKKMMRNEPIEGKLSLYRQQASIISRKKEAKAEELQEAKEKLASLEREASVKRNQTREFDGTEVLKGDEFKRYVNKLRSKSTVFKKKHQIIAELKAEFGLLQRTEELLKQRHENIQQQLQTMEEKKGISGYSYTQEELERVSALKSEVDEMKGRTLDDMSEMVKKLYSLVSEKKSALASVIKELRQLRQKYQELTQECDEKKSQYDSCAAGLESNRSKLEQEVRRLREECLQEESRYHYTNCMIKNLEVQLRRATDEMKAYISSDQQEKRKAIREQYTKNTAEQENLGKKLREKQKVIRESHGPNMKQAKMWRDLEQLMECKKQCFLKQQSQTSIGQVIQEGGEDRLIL
UniProt Q9Y2F5, 1599-1623: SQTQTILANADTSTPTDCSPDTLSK
UniProt Q9UG01, whole entry, looked up: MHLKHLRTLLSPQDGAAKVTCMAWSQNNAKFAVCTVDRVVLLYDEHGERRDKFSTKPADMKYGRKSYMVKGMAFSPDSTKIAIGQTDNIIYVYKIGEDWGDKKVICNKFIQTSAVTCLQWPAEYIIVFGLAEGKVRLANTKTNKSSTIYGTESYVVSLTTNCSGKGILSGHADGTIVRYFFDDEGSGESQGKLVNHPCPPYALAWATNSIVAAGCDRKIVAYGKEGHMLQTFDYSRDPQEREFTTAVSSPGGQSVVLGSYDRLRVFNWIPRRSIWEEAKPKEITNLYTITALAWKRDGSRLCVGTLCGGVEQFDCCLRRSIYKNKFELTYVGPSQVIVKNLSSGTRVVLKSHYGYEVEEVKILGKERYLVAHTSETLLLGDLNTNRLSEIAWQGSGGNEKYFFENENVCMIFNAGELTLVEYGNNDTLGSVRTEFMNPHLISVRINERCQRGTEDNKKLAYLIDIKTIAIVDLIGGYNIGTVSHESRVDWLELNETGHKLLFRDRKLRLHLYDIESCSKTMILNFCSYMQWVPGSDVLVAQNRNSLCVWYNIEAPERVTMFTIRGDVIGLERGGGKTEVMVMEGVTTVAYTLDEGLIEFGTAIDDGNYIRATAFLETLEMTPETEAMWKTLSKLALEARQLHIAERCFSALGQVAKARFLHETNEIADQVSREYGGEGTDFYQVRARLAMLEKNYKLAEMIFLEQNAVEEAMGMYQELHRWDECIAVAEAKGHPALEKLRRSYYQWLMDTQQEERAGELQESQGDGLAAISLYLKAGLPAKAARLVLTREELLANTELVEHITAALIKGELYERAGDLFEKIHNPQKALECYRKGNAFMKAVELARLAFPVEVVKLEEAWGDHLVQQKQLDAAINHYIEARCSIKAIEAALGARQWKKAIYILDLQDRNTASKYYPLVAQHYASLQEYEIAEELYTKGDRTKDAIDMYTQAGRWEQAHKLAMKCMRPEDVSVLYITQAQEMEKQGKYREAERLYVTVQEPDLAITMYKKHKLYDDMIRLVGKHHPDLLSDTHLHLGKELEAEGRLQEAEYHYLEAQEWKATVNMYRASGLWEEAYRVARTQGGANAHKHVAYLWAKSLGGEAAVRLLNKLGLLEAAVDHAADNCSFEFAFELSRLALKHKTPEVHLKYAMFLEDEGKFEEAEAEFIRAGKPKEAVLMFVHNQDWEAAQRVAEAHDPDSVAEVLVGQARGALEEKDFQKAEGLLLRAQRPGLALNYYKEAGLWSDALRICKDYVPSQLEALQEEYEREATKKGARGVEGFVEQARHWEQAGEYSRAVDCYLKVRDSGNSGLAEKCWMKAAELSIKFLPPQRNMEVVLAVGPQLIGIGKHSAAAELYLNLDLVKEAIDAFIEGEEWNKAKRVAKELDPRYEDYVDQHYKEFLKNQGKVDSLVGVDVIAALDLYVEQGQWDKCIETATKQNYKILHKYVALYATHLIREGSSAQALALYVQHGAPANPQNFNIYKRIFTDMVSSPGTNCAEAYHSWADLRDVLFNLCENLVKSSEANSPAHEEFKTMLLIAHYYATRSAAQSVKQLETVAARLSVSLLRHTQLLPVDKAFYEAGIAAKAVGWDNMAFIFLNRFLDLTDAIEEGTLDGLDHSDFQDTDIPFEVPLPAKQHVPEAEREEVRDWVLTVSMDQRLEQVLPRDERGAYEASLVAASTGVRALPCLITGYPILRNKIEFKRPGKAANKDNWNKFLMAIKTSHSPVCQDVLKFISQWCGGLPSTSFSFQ
UniProt P42858, whole entry, looked up: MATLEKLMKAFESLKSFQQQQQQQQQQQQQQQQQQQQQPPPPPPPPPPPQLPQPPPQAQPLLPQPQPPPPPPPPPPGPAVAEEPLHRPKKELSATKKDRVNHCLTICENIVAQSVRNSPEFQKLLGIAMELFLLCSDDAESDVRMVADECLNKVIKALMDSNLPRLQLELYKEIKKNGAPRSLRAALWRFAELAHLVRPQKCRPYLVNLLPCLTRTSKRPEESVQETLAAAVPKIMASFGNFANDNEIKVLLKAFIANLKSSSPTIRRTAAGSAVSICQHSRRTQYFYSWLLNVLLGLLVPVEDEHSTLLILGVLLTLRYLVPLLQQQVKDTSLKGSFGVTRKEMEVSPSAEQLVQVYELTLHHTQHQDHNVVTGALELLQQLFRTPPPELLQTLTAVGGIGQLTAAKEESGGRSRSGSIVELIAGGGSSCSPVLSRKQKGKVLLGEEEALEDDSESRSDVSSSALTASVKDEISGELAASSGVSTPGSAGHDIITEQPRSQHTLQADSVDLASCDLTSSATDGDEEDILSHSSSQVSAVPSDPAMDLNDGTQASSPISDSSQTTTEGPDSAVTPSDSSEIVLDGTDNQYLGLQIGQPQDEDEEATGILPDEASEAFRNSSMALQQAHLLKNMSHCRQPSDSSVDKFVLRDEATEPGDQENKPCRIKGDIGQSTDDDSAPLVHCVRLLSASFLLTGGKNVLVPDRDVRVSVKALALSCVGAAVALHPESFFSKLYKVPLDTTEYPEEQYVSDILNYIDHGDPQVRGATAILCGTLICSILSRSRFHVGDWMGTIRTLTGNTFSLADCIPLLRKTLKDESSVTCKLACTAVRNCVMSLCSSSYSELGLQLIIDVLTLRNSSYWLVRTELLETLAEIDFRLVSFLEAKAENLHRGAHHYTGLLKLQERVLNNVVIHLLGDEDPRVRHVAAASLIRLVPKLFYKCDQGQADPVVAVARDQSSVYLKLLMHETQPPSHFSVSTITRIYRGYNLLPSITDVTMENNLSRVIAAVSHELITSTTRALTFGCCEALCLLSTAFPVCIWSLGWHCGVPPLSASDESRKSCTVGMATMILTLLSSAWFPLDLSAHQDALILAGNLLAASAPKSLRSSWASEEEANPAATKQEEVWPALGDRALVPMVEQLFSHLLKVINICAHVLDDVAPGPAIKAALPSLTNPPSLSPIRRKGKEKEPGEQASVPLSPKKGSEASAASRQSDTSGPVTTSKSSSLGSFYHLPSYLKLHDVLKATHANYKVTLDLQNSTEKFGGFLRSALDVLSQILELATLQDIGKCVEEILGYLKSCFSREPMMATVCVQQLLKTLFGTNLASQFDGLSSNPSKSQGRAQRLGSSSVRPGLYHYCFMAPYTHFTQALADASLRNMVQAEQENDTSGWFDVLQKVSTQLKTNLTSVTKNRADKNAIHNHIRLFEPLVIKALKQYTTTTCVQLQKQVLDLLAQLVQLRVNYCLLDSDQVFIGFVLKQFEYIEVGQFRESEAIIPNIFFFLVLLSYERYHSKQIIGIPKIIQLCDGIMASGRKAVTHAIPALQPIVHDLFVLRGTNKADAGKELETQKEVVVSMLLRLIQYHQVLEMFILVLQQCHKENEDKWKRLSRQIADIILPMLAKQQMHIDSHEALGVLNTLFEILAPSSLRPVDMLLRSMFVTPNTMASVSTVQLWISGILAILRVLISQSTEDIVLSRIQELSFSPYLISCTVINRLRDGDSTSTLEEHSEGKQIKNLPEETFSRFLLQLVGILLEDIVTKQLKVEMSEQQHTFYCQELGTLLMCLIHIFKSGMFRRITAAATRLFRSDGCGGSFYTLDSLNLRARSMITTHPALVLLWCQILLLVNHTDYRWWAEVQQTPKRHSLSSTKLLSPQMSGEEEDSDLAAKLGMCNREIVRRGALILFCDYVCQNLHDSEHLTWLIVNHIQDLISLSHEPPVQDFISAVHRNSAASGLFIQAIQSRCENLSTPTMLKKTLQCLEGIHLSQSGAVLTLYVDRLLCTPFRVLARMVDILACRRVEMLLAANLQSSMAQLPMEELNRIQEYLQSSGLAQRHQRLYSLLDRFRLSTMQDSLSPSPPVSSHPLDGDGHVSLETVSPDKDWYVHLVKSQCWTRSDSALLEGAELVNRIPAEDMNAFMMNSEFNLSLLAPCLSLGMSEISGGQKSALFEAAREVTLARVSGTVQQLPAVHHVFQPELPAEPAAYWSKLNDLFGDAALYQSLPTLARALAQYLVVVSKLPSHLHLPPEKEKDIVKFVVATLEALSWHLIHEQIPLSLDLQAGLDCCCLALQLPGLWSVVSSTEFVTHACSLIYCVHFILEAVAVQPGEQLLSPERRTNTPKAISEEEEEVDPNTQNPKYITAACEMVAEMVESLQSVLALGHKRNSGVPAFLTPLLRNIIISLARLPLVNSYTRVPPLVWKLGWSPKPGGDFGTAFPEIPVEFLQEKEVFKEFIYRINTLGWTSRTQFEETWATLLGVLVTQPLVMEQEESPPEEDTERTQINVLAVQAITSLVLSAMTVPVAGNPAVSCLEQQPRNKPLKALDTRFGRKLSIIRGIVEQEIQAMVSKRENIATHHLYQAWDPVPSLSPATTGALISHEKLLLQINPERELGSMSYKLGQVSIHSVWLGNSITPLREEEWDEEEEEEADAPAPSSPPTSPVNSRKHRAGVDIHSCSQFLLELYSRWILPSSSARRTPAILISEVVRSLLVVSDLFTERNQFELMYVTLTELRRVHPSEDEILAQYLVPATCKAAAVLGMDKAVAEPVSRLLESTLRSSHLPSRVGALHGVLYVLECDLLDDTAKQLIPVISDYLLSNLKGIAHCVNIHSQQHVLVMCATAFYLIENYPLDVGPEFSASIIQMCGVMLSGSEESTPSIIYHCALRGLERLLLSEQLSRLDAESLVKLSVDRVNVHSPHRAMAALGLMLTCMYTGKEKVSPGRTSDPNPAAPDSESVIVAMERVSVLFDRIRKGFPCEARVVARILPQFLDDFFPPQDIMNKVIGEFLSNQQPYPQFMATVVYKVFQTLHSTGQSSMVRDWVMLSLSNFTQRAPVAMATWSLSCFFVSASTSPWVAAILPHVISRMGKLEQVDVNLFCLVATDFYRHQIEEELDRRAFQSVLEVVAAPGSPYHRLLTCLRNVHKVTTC
UniProt P42858, 417-437: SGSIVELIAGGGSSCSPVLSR
UniProt Q6DN90, 196-224: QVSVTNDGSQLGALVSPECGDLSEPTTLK
UniProt Q9P2D0, 512-532: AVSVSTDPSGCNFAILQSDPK
UniProt O75874, whole entry, looked up: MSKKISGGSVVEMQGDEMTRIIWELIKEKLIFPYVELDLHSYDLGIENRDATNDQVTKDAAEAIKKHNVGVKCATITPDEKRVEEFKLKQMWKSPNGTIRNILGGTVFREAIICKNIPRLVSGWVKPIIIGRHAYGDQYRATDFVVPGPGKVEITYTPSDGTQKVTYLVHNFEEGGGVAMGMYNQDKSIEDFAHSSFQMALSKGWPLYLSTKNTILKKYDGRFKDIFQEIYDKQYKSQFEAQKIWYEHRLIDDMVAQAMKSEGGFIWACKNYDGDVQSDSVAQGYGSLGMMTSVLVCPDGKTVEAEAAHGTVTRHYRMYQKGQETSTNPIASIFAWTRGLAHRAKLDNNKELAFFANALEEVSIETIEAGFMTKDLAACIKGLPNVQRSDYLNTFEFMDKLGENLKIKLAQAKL
UniProt Q96EW2: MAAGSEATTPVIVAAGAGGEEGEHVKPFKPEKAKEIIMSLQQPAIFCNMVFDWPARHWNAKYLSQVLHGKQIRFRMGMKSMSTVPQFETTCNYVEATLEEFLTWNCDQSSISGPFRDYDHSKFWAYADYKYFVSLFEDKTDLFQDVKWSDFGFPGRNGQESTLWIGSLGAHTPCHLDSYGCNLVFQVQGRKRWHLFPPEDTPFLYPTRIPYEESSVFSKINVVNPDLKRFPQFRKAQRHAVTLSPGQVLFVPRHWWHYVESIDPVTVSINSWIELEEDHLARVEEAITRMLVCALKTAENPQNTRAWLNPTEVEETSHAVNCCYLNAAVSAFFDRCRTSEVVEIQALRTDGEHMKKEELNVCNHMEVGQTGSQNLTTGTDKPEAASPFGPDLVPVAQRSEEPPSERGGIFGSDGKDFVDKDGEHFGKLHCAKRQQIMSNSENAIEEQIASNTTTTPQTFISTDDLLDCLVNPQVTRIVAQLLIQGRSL
IARS1_(C350,C350,C357,C357), as listed by the source: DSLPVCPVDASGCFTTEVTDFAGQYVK

[2] = compound: ClCC(=O)N[C@H]1CCCc2ccccc12; assay: as above; settings: treatment time: 4 h, cell line lysate: HEK293T
Description: as §1

Target | log2 mean competition ratio ([1]; 50 µM) | log2 mean competition ratio ([1]; 200 µM) | log2 mean competition ratio ([2]; 50 µM) | log2 mean competition ratio ([2]; 200 µM)
IPO4 C782 (UniProt Q8TEX9) | 0.584 | 0.137 | -0.165 | 0.0374
IGF2BP3 C257 (UniProt O00425) | -0.128 | -0.0239 | 0.0885 | 0.0112
HYOU1 C352 | -0.39 | -0.185 | -0.102 | -0.129
IGHMBP2 C395 (UniProt P38935) | 0.113 | 0.104 | 0.162 | -0.0133
INTS1 C1433 (UniProt Q8N201) | 0.544 | 1.38 | 0.621 | 0.722
IPO11 C894 (UniProt Q9UI26) | -0.251 | -0.137 | -0.437 | -0.17
IFT81 C535 (UniProt Q8WYA0) | 0.0448 | 0.00602 | -0.0907 | -0.131
IGF2R C1270 (UniProt P11717) | -0.205 | 0.0344 | -0.416 | -0.119
ICE1 C531 (UniProt Q9Y2F5) | 0.0301 | 0.119 | -0.116 | -0.0154
IKBKG C347 (UniProt Q9Y6K9) | -0.0412 | 0.0114 | 0.27 | 0.294
IPO13 C848 (UniProt O94829) | -0.109 | 0.0229 | 0.107 | 0.203
IFFO1 C341 | 0.0219 | 0.209 | -0.341 | 0.13
INPP5A C247 (UniProt Q14642) | -0.0678 | -0.386 | 0.00383 | -0.245
IDI1 C172 (UniProt Q13907) | 0.0439 | -0.464 | 0.605 | -0.0783
HUWE1 C1567 | 0.00799 | -0.26 | -0.386 | -0.314
IFT172 C1430 (UniProt Q9UG01) | 0.0674 | -0.0172 | 0.189 | 0.102
ILVBL C608 (UniProt A1L0T0) | -0.0274 | 0.159 | -0.00745 | 0.0591
HSDL1 C265 (UniProt Q3SXM5) | 0.0227 | -0.303 | 0.186 | -0.109
IFIT5 C73 (UniProt Q13325) | -0.415 | -0.0838 | -0.264 | -0.534
HTT C827 (UniProt P42858) | 0.157 | 0.062 | 0.411 | 0.277
IPO7 C736 (UniProt O95373) | 0.149 | 0.172 | 0.347 | 0.0178
IFFO1 C331 | -0.111 | 0.287 | 0.164 | 0.49
IQSEC1 C214 (UniProt Q6DN90) | -0.506 | -0.17 | -0.126 | -0.304
HTT C431 (UniProt P42858) | 0.198 | 0.281 | 0.355 | 0.0937
IARS2 C1002 (UniProt Q9NSE4) | -0.0345 | -0.0286 | -0.203 | -9.14e-05

Target | log2 mean competition ratio ([1]; 50 µM) | log2 mean competition ratio ([1]; 200 µM) | log2 mean competition ratio ([2]; 50 µM) | log2 mean competition ratio ([2]; 200 µM)
IFT20 C37 (UniProt Q8IY31) | -0.247 | -0.0774 | -0.0233 | -0.0675
IKBKB C299 (UniProt O14920) | -0.014 | 0.0246 | 0.172 | 0.0724
IQGAP3 C1411 (UniProt Q86VI3) | -0.192 | 0.138 | -0.0884 | 0.194
IPO5 C473 | 0.000849 | 0.224 | 0.124 | 0.0792
ILKAP C190 (UniProt Q9H0C8) | 0.263 | 0.0752 | -0.0199 | 0.035
INTS6 C211 (UniProt Q9UL03) | -0.0255 | 0.0245 | 0.144 | 0.324
INCENP C483 (UniProt Q9NQS7) | 0.12 | 0.543 | 0.139 | 0.484
IKBKG C54 (UniProt Q9Y6K9) | 0.19 | -0.0674 | 0.0422 | -0.0148
INCENP C15 (UniProt Q9NQS7) | 0.253 | -0.317 | 0.177 | -0.105
INTS6 C783 (UniProt Q9UL03) | -0.0933 | -0.219 | -0.323 | -0.176
HPF1 C29 (UniProt Q9NWY4) | -0.0791 | 0.153 | -0.819 | 0.116
INF2 C332 (UniProt Q27J81) | -0.105 | -0.143 | -0.0156 | -0.331
HPS3 C915 (UniProt Q969F9) | -0.0902 | -0.236 | -0.266 | -0.09
IRF2BP2 C549 (UniProt Q7Z5L9) | 0.333 | -0.544 | 0.532 | -0.245
INPP4A C540 (UniProt Q96PE3) | -0.0875 | -0.232 | 0.805 | -0.0285
IFT27 C8 (UniProt Q9BW83) | -0.103 | -0.00992 | 0.0856 | 0.0374
IARS2 C1005 (UniProt Q9NSE4) | -0.156 | -0.154 | 0.437 | 0.225
HROB C236 | -0.0796 | 0.412 | 0.678 | 0.208
IKBKB C524 (UniProt O14920) | -0.233 | -0.207 | 0.467 | -0.147
ILK C239 (UniProt Q13418) | -0.0745 | 0.308 | 0.17 | 0.345
IGF2R C1227 (UniProt P11717) | -0.328 | -0.206 | -0.302 | -0.167
IDI1 C39 (UniProt Q13907) | -0.015 | -0.0415 | -0.059 | 0.0251
IBTK C231 (UniProt Q9P2D0) | 0.0553 | -0.0629 | 0.0524 | -0.104
IQGAP3 C646 (UniProt Q86VI3) | 0.418 | -0.0521 | 0.14 | -0.0673
IQSEC1 C906 (UniProt Q6DN90) | 0.167 | 0.257 | -0.307 | 0.293

Target | log2 mean competition ratio ([1]; 50 µM) | log2 mean competition ratio ([1]; 200 µM) | log2 mean competition ratio ([2]; 50 µM) | log2 mean competition ratio ([2]; 200 µM)
IPO9 C639 (UniProt Q96P70) | -0.333 | 0.125 | 0.156 | 0.00124
IFRD1 C178 (UniProt O00458) | 0.15 | -0.21 | -0.222 | 0.121
IDH3G C148 (UniProt P51553) | 0.181 | 0.292 | -0.461 | 0.0709
HSPA14 C335 (UniProt Q0VDF9) | 0.0489 | 0.00944 | 0.0439 | 0.0249
HTT C150 (UniProt P42858) | -0.17 | -0.0173 | 0.242 | -0.0176
ICE1 C1616 (UniProt Q9Y2F5) | 0.228 | -0.389 | -0.294 | -0.0231
IL6ST C419 (UniProt P40189) | -0.0611 | -0.00782 | -0.208 | -0.234
IPO5 C348 | -0.0544 | 0.64 | -0.0733 | 0.82
IDH3A C222 (UniProt P50213) | -0.265 | 0.11 | -0.0793 | 0.228
IFRD2 C147 (UniProt Q12894) | 0.225 | 0.468 | -0.344 | 0.19
INTS10 C270 (UniProt Q9NVR2) | 0.294 | 0.115 | -0.118 | 0.0684
IQGAP3 C1515 (UniProt Q86VI3) | 0.0041 | 0.158 | -0.511 | -0.143
HPS4 C183 (UniProt Q9NQG7) | -0.0183 | 0.223 | -0.0477 | 0.136
HROB C209 | -0.083 | 0.157 | 0.326 | 0.345
INTS2 C48 (UniProt Q9H0H0) | 0.215 | 0.0926 | -0.163 | 0.156
INTS4 C44 (UniProt Q96HW7) | 0.0782 | 0.389 | 0.235 | 0.325
IFNAR1 C502 (UniProt P17181) | -0.093 | 0.0824 | 0.196 | -0.404
IQGAP1 C1534 (UniProt P46940) | -0.0958 | -0.289 | 0.744 | 0.0577
IMMT C603 | -0.035 | -0.325 | -0.683 | -0.116
HUWE1 C1832 | -0.0766 | 0.257 | -0.364 | 0.184
IFT172 C724 (UniProt Q9UG01) | 0.215 | 0.14 | -0.385 | -0.038
IRF2BPL C385 (UniProt Q9H1B7) | 0.38 | -0.26 | 0.352 | 0.0266
INTS1 C1534 (UniProt Q8N201) | -0.132 | -0.31 | 0.129 | -0.151
IDH1 C73 (UniProt O75874) | -0.447 | 0.218 | -0.443 | -0.0325
IDH3A C331 (UniProt P50213) | 0.0686 | -0.259 | 0.035 | -0.188

Six entries from above, as tab-separated lines.
Target	log2 mean competition ratio ([1]; 50 µM)	log2 mean competition ratio ([1]; 200 µM)	log2 mean competition ratio ([2]; 50 µM)	log2 mean competition ratio ([2]; 200 µM)
IFRD1 C178 (UniProt O00458)	0.15	-0.21	-0.222	0.121
IDH3G C148 (UniProt P51553)	0.181	0.292	-0.461	0.0709
HSPA14 C335 (UniProt Q0VDF9)	0.0489	0.00944	0.0439	0.0249
HTT C150 (UniProt P42858)	-0.17	-0.0173	0.242	-0.0176
ICE1 C1616 (UniProt Q9Y2F5)	0.228	-0.389	-0.294	-0.0231
IL6ST C419 (UniProt P40189)	-0.0611	-0.00782	-0.208	-0.234

Further records:

Target | log2 mean competition ratio ([1]; 50 µM) | log2 mean competition ratio ([1]; 200 µM) | log2 mean competition ratio ([2]; 50 µM) | log2 mean competition ratio ([2]; 200 µM)
ID1 C17 (UniProt P41134) | – | 0.104 | -0.346 | -0.166
IBTK C522 (UniProt Q9P2D0) | -0.132 | -0.147 | 0.164 | -0.201
ING2 C124 (UniProt Q9H160) | -0.113 | 0.347 | -0.143 | -0.00368
IPPK C220 (UniProt Q9H8X2) | 0.00269 | -0.0106 | -0.0133 | 0.168
HTT C1961 (UniProt P42858) | 0.112 | 0.15 | -0.789 | -0.177
HSPBAP1 C293 (UniProt Q96EW2) | 0.0572 | -0.0955 | 0.351 | -0.27
HPRT1 C106 (UniProt P00492) | 0.00966 | -0.139 | -0.0663 | -0.0752
ICE1 C123 (UniProt Q9Y2F5) | -0.0069 | -0.332 | 0.254 | -0.553
INTS1 C1833 (UniProt Q8N201) | -0.0189 | 0.353 | -0.447 | 0.277
HSPA9 C608 (UniProt P38646) | -0.0889 | -0.202 | -0.213 | -0.205
IFT81 C648 (UniProt Q8WYA0) | -0.422 | – | 0.00893 | 0.236
IARS1_(C350,C350,C357,C357) | 0.469 | -0.0432 | 0.904 | 0.0297
ICA1L C124 | – | -0.00986 | 0.447 | 0.073
IGF2BP3 C336 (UniProt O00425) | -0.195 | 0.0501 | 0.164 | 0.162
HSPH1 C796 | -0.173 | -0.186 | -0.278 | -0.275
IREB2 C467 (UniProt P48200) | 0.251 | -0.233 | -0.34 | -0.108
HUWE1 C1879 | 0.0101 | -0.0892 | 0.438 | 0.0855
IFT22 C12 (UniProt Q9H7X7) | 0.178 | 0.121 | -0.074 | 0.0288
IPO4 C708 (UniProt Q8TEX9) | 0.109 | 0.0201 | -0.524 | -0.182
IFT81 C557 (UniProt Q8WYA0) | 0.0823 | 0.0539 | -0.292 | 0.302
IDH2 C402 (UniProt P48735) | -0.178 | -0.236 | -0.247 | -0.187
IREB2 C178 (UniProt P48200) | -0.0355 | 0.397 | -0.00538 | 0.328
IFT172 C1298 (UniProt Q9UG01) | -0.184 | -0.324 | 0.573 | 0.0181
